These results are taken from the supplement of paper PMC10735217.

The assay deals with HEK293A TEAD-LUC reporter. Nature of the assay: TEAD-luciferase reporter activity (YAP activation), robust Z score vs plate; higher = stronger YAP/TEAD activation. The settings on record: 24 h.

SMILES strings stand for the structures. This is one part of the list. Repeats in this data set agree poorly, so a single value says little.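 Human kidney-derived cells stably carry a construct in which eight TEAD-binding elements drive luciferase, measured by luminescence in a drug-repurposing library screen. A hit is any compound whose signal exceeds the plate mean by more than five robust Z scores.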

On to `CCOc1noc2cc(OCCC3CCN(c4ccc(C)nn4)CC3)ccc12` [Vapendavir], for which the TEAD-luciferase reporter activity is, setting by setting: (compound concentration: 200 nM) inactive: -0.653; (compound concentration: 2 uM) inactive: 0.449; (compound concentration: 10 uM) inactive: 3.

Take `CCC1(C)OC(=O)N(C)C1=O` (centres undefined): the TEAD-luciferase reporter activity runs as follows: (compound concentration: 200 nM) inactive: 1.85; (compound concentration: 2 uM) inactive: -2.2; (compound concentration: 10 uM) inactive: -0.989.

With `COC(=O)C1=C(C)NC(C)=C(C(=O)OCC(C)C)C1c1ccccc1[N+](=O)[O-]` (centres undefined) [nisoldipine], the TEAD-luciferase reporter activity was inactive: 0.726 (compound concentration: 200 nM), inactive: -2.04 (compound concentration: 2 uM) and inactive: 0.573 (compound concentration: 10 uM).

As for `COc1ccc(C(=O)N2Cc3ccccc3CC23CCCN(C(=O)CN)C3)cc1` (centres undefined), the TEAD-luciferase reporter activity runs as follows: (compound concentration: 200 nM) inactive: -1.1; (compound concentration: 10 uM) inactive: -3.03.

Turning to `COC1=CC(=O)C[C@@H](C)[C@]12Oc1c(Cl)c(OC)cc(OC)c1C2=O` [Griseofulvin126-07-8], the TEAD-luciferase reporter activity by setting is: (compound concentration: 200 nM) inactive: -0.782; (compound concentration: 10 uM) inactive: 3.82.

Take `COC1=CC(=O)C[C@@H](C)[C@]12Oc1c(Cl)c(OC)cc(OC)c1C2=O` [griseofulvin]: for the setting “compound concentration: 2 uM”, the TEAD-luciferase reporter activity is inactive: 2.01.

As to `O=C1CCC2CCC(=O)N12` [rolziracetam], the TEAD-luciferase reporter activity reads like this: (compound concentration: 200 nM) inactive: -1.37; (compound concentration: 2 uM) inactive: -2.5; (compound concentration: 10 uM) inactive: 0.514.

As for `Nc1ccccc1NC(=O)c1ccc(CNC(=O)OCc2cccnc2)cc1` [entinostat], where the note is “compound concentration: 2 uM”, the TEAD-luciferase reporter activity was active: 18.6.

Take `Nc1ccccc1NC(=O)c1ccc(CNC(=O)OCc2cccnc2)cc1` [Entinostat (MS-275, SNDX-275)]: the TEAD-luciferase reporter activity is inactive: 0.477 (compound concentration: 200 nM) and active: 6.22 (compound concentration: 10 uM).

Consider `CSC[C@H]1O[C@@H](n2cnc3c(N)ncnc32)[C@H](O)[C@@H]1O`, for which the TEAD-luciferase reporter activity (compound concentration: 200 nM) was inactive: -0.813, the TEAD-luciferase reporter activity (compound concentration: 2 uM) was inactive: -1.59 and the TEAD-luciferase reporter activity (compound concentration: 10 uM) is inactive: 0.926.

As for `CCCCCCCCC(=O)O`, the TEAD-luciferase reporter activity was inactive: 4.69 (compound concentration: 200 nM), inactive: -1.23 (compound concentration: 2 uM) and inactive: -0.21 (compound concentration: 10 uM).

As for `COC(=O)c1c(C(=O)OC)c(-c2ccc(OC)c(OC)c2)c2c(OC)c(OC)c(OC)cc2c1O`, the TEAD-luciferase reporter activity reads like this: (compound concentration: 200 nM) active: 6.04; (compound concentration: 2 uM) inactive: -0.0305; (compound concentration: 10 uM) inactive: 0.621.

For `NCC(O)CC(=O)O` (centres undefined), the TEAD-luciferase reporter activity by setting is: (compound concentration: 200 nM) inactive: -1.58; (compound concentration: 2 uM) inactive: -0.188; (compound concentration: 10 uM) inactive: -0.735.

On to `c1cnc(NCc2ccc(CNc3ncccn3)cc2)nc1`, for which the TEAD-luciferase reporter activity reads like this: (compound concentration: 200 nM) inactive: -1.28; (compound concentration: 2 uM) inactive: 0.2; (compound concentration: 10 uM) inactive: 1.65.

`O=C(O)CCCCCCc1c(O)nc(O)n1CCC(O)C1CCCCC1` (centres undefined): the TEAD-luciferase reporter activity is inactive: 0.341 (compound concentration: 200 nM), inactive: -0.812 (compound concentration: 2 uM) and inactive: 0.511 (compound concentration: 10 uM).

`O=C(NCc1ccsc1)c1cnc(Nc2cccc(Cl)c2)nc1C(F)(F)F`: the TEAD-luciferase reporter activity is, setting by setting: (compound concentration: 200 nM) inactive: -1.15; (compound concentration: 2 uM) inactive: -0.396; (compound concentration: 10 uM) inactive: -1.06.

For the molecule `O=[Si](O)O[Si](O)(O)O[Si](=O)O` [Magnesium trisilicate hydrate], the TEAD-luciferase reporter activity was inactive: 0.152 (compound concentration: 200 nM), inactive: 0.167 (compound concentration: 2 uM) and inactive: 1.59 (compound concentration: 10 uM).

For `O=C(O)c1cc(=O)c2c(OCC(O)COc3cccc4oc(C(=O)O)cc(=O)c34)cccc2o1` [cromoglicic acid], for the setting “compound concentration: 2 uM”, the TEAD-luciferase reporter activity is inactive: -1.12.

On to `O=C(O)c1cc(=O)c2c(OCC(O)COc3cccc4oc(C(=O)O)cc(=O)c34)cccc2o1` [Disodium cromoglycate], for which the TEAD-luciferase reporter activity by setting is: (compound concentration: 200 nM) inactive: -1.74; (compound concentration: 10 uM) inactive: -1.6.

Take `Clc1ccc(/C(=C/c2ccc(Cl)cc2Cl)Cn2ccnc2)cc1`: the TEAD-luciferase reporter activity runs as follows: (compound concentration: 200 nM) inactive: -1.32; (compound concentration: 2 uM) inactive: -0.0279; (compound concentration: 10 uM) inactive: -1.2.

Take `CN1C(=O)c2ccncc2/C(=C\CCCCC(=O)O)c2ccccc21`: the TEAD-luciferase reporter activity is, setting by setting: (compound concentration: 200 nM) inactive: -0.918; (compound concentration: 2 uM) inactive: 0.222; (compound concentration: 10 uM) inactive: 2.75.

As to `O=C([O-])CCCCCCCCC(=O)[O-]` [disodium sebacate], the TEAD-luciferase reporter activity is inactive: -0.117 (compound concentration: 200 nM), inactive: -0.0746 (compound concentration: 2 uM) and inactive: -0.193 (compound concentration: 10 uM).

For `CCC(CC)(CC(=O)Nc1cccc(/C=C/c2nc(C3CCC3)cs2)c1)C(=O)O` [Cinalukast], the TEAD-luciferase reporter activity was inactive: -1 (compound concentration: 200 nM), inactive: 0.344 (compound concentration: 2 uM) and inactive: 0.35 (compound concentration: 10 uM).

In the case of `O=c1ccn([C@@H]2O[C@H](COP(=O)(O)OP(=O)(O)OP(=O)(O)O)[C@@H](O)[C@H]2O)c(=O)[nH]1` [Uridine triphosphate], the TEAD-luciferase reporter activity was inactive: 0.297 (compound concentration: 200 nM), inactive: -0.546 (compound concentration: 2 uM) and inactive: -0.665 (compound concentration: 10 uM).

For the molecule `CC(C)(C)NCC(O)COc1ccc(O)c2c1C1CCC2CC1` (centres undefined) [Nafetolol], the TEAD-luciferase reporter activity was inactive: -1.57 (compound concentration: 200 nM), inactive: 0.376 (compound concentration: 2 uM) and inactive: 1.12 (compound concentration: 10 uM).

Turning to `O=C(c1ccc(F)cc1)C1CCN(CCCN2c3ccccc3Sc3ccc(C(F)(F)F)cc32)CC1` [duoperone], the TEAD-luciferase reporter activity is, setting by setting: (compound concentration: 200 nM) inactive: -1.21; (compound concentration: 2 uM) inactive: -0.978; (compound concentration: 10 uM) inactive: -0.317.

For `C=C1/C(=C\C=C2/CCC[C@]3(C)C([C@@H](C)C/C=C/C(O)(CC)CC)=CC[C@@H]23)C[C@@H](O)C[C@@H]1F`, the TEAD-luciferase reporter activity by setting is: (compound concentration: 200 nM) inactive: 0.525; (compound concentration: 2 uM) inactive: -0.572; (compound concentration: 10 uM) inactive: -1.09.

Regarding `CC(=O)NC1C(O)OC(CO)C(O)C1OC1OC(C(=O)O)C(OC2OC(CO)C(O)C(OC3OC(C(=O)O)C(O)C(O)C3O)C2NC(C)=O)C(O)C1O` (centres undefined) [Hyaluronic Acid], the TEAD-luciferase reporter activity runs as follows: (compound concentration: 200 nM) inactive: -0.831; (compound concentration: 10 uM) inactive: 1.62.

On to `COC[C@H](C)NC(=O)c1nc(N2CC[C@@H](NC(=O)c3[nH]c(C)c(Cl)c3Cl)[C@@H](OC)C2)sc1C(=O)O`, for which the TEAD-luciferase reporter activity reads like this: (compound concentration: 200 nM) inactive: -1.37; (compound concentration: 2 uM) inactive: -1.22; (compound concentration: 10 uM) inactive: 0.418.

With `CC(C)C(NC(=O)C(CC(=O)O)NC(=O)C(CCCCN)NC(=O)C(N)CCCNC(=N)N)C(=O)NC(Cc1ccc(O)cc1)C(=O)O` (centres undefined) [thymopentin], the TEAD-luciferase reporter activity by setting is: (compound concentration: 200 nM) inactive: -2.81; (compound concentration: 2 uM) inactive: -0.256; (compound concentration: 10 uM) inactive: -0.674.

As for `OC(CNCC(O)C1COc2ccccc2O1)C1COc2ccccc2O1` (centres undefined), the TEAD-luciferase reporter activity (compound concentration: 200 nM) is inactive: -0.628, the TEAD-luciferase reporter activity (compound concentration: 2 uM) is inactive: -1.02 and the TEAD-luciferase reporter activity (compound concentration: 10 uM) is inactive: -1.34.

As to `N[C@@H]1CC[C@@H](c2ccc(Cl)c(Cl)c2)c2ccccc21` [Dasotraline], the TEAD-luciferase reporter activity runs as follows: (compound concentration: 200 nM) inactive: -0.0204; (compound concentration: 2 uM) inactive: -0.966; (compound concentration: 10 uM) inactive: -0.32.

As to `O=C(O)Cn1c2c(c3cc(F)ccc31)CN(C(=O)c1cccc3ccccc13)CC2` [Setipiprant], the TEAD-luciferase reporter activity by setting is: (compound concentration: 200 nM) inactive: -1.19; (compound concentration: 2 uM) inactive: -0.792; (compound concentration: 10 uM) inactive: 0.5.

Take `C[n+]1ccc(SCC2=C(C(=O)O)N3C(=O)C(NC(=O)/C(=N\OC4CCCC4)c4csc(N)n4)[C@H]3CS2)cc1` (some centres undefined): the TEAD-luciferase reporter activity was inactive: -1.2 (compound concentration: 200 nM), inactive: -1.49 (compound concentration: 2 uM) and inactive: -0.448 (compound concentration: 10 uM).

As to `Cc1cc(COc2ccc(Oc3ccc(Cl)cc3)cc2)n(O)c(=O)c1` [Rilopirox], the TEAD-luciferase reporter activity was inactive: 1.36 (compound concentration: 200 nM), inactive: -1.87 (compound concentration: 2 uM) and inactive: -2.11 (compound concentration: 10 uM).
